The other results are listed elsewhere or left out.
Tests used:
Test in all cases: log2 fold change, soluble protein after heating vs DMSO (PISA); higher = thermal stabilisation; K562 lysate, 10 uM; active = over 0.2 and 3.5 SD of the protein, either way, in both replicates (recomputed)
lapatinib = compound: CS(=O)(=O)CCNCc1ccc(-c2ccc3ncnc(Nc4ccc(OCc5cccc(F)c5)c(Cl)c4)c3c2)o1 [lapatinib]
In short: (§1)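 Soluble protein was defined as the supernatant remaining after 21,000xg for 90 min, following pooling of heated aliquots and adjustment to 0.5% NP-40 at 4°C. Before that, crude K562 extract at 1 mg/mL protein in PBS pH 7.4 with 1 mM MgCl2 was treated with 10 μM compound for 30 min and heated for 3 min across 48°C-58°C. Quantification used TMTpro 16plex LC-MS/MS with channel sums equalised, and values are log-two fold changes in thermal stability relative to solvent controls from duplicates.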

By UniProt entry, the sequences of proteins in these tests, tags left out. Where a name states a change or a piece, a line headed by the entry shows the natural chain unless it says otherwise.
UniProt Q6IBS0: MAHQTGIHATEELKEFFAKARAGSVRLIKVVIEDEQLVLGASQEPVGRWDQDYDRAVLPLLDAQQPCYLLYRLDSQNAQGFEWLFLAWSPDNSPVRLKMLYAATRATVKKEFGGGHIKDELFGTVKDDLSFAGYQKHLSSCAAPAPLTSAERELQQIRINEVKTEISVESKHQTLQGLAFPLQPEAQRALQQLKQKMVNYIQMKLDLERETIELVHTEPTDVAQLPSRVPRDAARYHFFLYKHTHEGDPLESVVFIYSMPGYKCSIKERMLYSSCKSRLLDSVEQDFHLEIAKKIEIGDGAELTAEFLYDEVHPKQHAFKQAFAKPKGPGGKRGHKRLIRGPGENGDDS
UniProt Q8IWV8: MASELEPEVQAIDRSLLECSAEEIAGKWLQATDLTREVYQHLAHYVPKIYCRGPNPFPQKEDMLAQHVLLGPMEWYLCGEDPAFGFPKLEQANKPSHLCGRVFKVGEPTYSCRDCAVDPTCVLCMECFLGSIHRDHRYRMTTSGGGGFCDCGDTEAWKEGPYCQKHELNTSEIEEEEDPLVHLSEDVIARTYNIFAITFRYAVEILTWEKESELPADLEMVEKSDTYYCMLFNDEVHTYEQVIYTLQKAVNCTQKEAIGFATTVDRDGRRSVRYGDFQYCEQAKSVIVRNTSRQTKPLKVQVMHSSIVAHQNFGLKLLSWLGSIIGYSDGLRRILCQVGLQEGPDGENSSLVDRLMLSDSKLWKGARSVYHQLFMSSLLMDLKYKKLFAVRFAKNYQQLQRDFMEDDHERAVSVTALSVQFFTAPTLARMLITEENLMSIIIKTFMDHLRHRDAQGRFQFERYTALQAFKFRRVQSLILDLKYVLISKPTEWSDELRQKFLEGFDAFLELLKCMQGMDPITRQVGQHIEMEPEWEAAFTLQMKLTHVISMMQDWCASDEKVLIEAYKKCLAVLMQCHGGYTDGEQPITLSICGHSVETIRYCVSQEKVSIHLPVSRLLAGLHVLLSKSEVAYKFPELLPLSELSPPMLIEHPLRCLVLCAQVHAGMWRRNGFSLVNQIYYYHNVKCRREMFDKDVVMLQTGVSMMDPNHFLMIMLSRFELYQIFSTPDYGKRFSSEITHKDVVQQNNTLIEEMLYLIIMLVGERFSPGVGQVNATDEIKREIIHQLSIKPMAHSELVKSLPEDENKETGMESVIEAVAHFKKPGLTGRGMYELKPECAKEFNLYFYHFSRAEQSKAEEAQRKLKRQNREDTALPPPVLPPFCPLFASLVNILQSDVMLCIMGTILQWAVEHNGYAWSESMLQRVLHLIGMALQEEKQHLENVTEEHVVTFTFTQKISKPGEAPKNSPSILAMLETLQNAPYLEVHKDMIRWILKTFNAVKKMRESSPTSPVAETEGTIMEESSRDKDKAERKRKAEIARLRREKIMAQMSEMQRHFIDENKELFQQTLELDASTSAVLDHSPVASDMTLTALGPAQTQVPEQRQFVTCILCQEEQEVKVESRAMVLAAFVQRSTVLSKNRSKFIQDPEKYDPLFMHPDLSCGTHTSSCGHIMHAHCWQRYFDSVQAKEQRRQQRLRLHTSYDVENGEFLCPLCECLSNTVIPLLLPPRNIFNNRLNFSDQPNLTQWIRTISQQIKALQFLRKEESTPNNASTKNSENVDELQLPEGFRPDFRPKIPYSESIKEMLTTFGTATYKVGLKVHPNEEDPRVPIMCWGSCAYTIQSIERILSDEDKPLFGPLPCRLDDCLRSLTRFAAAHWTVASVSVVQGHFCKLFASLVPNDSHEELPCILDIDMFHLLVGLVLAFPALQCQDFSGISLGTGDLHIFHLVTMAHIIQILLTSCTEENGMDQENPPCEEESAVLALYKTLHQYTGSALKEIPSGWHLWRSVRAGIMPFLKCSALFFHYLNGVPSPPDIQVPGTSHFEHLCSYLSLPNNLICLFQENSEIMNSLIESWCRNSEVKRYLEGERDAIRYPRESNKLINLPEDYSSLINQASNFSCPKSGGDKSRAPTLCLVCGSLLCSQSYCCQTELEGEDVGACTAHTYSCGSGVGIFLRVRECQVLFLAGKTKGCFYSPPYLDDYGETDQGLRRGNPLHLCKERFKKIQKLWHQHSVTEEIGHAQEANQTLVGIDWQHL
UniProt Q7Z6J8: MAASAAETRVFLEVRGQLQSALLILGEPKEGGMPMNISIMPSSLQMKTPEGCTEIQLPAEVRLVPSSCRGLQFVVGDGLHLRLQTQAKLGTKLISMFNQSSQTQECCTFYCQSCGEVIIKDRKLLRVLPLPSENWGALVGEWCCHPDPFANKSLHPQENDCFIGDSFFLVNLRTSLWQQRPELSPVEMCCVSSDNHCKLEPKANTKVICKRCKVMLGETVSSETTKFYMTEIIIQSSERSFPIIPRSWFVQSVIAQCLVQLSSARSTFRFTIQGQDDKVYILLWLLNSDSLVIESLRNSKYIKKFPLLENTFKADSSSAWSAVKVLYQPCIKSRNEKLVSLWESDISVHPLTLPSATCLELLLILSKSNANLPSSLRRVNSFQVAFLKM
UniProt Q9Y5K5, whole entry, looked up: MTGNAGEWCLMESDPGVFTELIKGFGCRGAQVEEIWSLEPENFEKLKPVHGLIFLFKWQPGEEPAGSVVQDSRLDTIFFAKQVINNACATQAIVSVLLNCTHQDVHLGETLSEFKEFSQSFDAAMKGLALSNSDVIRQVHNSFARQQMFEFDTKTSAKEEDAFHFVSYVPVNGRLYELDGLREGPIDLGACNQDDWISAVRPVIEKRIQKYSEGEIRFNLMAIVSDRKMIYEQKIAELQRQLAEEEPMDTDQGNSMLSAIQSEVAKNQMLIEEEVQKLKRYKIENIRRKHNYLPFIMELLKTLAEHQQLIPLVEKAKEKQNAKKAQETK
UniProt Q9BRA2: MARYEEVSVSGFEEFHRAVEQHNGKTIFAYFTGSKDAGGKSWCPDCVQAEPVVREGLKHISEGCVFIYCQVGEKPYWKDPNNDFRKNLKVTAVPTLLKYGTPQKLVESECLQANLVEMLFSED
UniProt Q6PKC3: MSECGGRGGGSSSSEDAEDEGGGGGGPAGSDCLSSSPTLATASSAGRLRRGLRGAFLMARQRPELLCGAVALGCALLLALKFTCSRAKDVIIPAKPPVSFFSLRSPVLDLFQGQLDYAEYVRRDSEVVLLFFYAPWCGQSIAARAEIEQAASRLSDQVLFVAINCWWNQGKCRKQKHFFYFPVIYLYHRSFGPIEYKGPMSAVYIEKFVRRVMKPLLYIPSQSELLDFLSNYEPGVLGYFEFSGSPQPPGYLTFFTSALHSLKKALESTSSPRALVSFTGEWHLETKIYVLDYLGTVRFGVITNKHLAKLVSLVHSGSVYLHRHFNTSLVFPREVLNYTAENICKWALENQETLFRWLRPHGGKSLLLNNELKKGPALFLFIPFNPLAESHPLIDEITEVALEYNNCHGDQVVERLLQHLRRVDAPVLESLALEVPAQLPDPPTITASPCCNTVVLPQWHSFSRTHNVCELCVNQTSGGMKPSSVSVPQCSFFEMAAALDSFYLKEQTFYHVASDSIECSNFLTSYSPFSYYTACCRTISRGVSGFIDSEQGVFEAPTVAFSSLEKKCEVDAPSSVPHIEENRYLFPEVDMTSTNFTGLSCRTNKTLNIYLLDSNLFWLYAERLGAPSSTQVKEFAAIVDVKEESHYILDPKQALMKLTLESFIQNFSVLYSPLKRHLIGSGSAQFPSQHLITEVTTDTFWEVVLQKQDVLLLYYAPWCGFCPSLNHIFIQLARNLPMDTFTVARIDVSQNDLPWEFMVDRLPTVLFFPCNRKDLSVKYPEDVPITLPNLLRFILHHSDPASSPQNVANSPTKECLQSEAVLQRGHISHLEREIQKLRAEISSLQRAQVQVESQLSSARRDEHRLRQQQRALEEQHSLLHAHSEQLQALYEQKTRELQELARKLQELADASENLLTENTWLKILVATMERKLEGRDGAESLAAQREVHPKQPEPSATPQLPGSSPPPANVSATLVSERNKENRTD
UniProt Q6ZT12: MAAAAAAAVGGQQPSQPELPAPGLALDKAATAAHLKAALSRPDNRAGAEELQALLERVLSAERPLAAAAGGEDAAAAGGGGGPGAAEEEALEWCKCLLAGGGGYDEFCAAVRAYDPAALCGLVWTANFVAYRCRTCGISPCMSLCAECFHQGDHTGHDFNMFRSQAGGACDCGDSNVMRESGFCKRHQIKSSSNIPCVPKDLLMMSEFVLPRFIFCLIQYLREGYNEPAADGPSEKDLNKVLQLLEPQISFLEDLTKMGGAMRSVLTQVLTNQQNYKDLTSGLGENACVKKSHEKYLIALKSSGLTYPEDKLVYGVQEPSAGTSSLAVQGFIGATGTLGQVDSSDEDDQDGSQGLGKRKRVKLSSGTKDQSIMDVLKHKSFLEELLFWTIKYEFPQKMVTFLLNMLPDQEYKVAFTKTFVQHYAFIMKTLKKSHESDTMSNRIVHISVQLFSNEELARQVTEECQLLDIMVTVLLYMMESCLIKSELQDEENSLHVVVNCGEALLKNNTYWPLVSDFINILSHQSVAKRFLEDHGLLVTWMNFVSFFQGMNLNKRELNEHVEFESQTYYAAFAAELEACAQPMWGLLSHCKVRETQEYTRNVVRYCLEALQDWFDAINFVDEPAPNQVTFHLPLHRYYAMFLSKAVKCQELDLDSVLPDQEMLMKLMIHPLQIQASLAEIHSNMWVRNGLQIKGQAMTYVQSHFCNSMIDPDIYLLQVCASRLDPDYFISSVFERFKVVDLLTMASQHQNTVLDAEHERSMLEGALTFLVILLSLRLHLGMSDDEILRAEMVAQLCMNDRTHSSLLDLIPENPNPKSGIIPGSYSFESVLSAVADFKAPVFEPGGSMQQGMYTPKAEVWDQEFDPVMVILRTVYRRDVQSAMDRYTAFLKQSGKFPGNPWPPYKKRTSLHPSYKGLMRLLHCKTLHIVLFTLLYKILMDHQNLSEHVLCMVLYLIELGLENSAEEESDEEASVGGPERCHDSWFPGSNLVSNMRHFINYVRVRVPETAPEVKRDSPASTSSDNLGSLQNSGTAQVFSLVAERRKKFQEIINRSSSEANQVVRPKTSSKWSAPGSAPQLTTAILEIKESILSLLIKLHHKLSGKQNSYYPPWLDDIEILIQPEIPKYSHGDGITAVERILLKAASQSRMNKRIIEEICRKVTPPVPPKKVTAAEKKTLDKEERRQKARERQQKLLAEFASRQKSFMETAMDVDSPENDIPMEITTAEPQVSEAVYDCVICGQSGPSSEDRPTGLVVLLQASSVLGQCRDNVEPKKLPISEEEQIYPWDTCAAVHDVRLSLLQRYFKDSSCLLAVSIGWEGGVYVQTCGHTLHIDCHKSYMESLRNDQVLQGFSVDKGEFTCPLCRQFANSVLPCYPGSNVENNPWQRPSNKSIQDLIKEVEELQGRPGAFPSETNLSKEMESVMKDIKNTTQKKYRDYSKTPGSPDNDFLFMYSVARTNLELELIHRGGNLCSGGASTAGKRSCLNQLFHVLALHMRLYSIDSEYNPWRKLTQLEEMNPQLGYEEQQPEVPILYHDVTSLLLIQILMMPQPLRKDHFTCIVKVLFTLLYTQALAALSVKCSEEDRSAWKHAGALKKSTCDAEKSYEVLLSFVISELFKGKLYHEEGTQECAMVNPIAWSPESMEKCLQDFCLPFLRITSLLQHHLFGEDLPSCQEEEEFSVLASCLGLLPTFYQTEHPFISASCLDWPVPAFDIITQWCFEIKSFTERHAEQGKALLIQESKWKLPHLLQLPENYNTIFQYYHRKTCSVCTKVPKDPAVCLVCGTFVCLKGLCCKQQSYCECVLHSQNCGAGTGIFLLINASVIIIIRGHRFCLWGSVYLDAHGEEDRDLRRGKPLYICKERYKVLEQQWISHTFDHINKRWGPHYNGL
UniProt Q9NV66: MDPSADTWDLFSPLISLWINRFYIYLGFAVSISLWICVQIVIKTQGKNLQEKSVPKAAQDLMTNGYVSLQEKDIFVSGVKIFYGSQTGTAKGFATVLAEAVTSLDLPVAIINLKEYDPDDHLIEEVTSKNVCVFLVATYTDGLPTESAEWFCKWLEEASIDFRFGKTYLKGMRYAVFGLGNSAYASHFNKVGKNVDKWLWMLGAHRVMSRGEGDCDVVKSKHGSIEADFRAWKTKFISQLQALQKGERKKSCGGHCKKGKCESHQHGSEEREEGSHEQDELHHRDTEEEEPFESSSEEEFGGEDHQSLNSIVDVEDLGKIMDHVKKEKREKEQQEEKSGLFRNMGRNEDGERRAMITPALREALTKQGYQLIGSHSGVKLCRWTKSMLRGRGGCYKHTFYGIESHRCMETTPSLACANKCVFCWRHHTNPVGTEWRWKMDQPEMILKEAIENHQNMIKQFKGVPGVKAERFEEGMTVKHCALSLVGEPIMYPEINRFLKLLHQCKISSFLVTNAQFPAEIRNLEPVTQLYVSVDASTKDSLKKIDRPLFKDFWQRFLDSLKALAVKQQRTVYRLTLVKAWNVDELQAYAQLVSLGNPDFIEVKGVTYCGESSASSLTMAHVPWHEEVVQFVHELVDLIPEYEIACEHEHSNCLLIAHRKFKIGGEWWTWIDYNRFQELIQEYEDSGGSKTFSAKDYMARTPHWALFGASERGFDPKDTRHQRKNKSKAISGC

pictilisib = compound: CS(=O)(=O)N1CCN(Cc2cc3nc(-c4cccc5[nH]ncc45)nc(N4CCOCC4)c3s2)CC1 [pictilisib]
In short: as §1

crizotinib = compound: C[C@@H](Oc1cc(-c2cnn(C3CCNCC3)c2)cnc1N)c1c(Cl)ccc(F)c1Cl [crizotinib]
In short: as §1

[1] = compound: C[C@H](C1=CC=C(C=C1)C(=O)NC2=C3C=CNC3=NC=C2)N
In short: as §1

duvelisib = compound: C[C@H](Nc1ncnc2nc[nH]c12)c1cc2cccc(Cl)c2c(=O)n1-c1ccccc1 [duvelisib]
In short: as §1

gandotinib = compound: Cc1cc(Nc2cc(CN3CCOCC3)c3nc(C)c(Cc4ccc(Cl)cc4F)n3n2)n[nH]1 [gandotinib]
In short: as §1

tozasertib = compound: Cc1cc(Nc2cc(N3CCN(C)CC3)nc(Sc3ccc(NC(=O)C4CC4)cc3)n2)n[nH]1 [tozasertib]
In short: as §1

doramapimod = compound: Cc1ccc(-n2nc(C(C)(C)C)cc2NC(=O)Nc2ccc(OCCN3CCOCC3)c3ccccc23)cc1 [doramapimod]
In short: as §1

bafetinib = compound: Cc1ccc(NC(=O)c2ccc(CN3CC[C@H](N(C)C)C3)c(C(F)(F)F)c2)cc1Nc1nccc(-c2cncnc2)n1 [bafetinib]
In short: as §1

[2] = compound: Cc1cccc(CC(=O)N2CCc3c2ccc(-c2cn(C)c4ncnc(N)c24)c3F)n1
In short: as §1

nilotinib = compound: Cc1cn(-c2cc(NC(=O)c3ccc(C)c(Nc4nccc(-c5cccnc5)n4)c3)cc(C(F)(F)F)c2)cn1 [nilotinib]
In short: as §1

[3] = compound: Cc1nc(Nc2n[nH]c3c2CN(C(=O)N[C@H](CN(C)C)c2ccccc2)C3(C)C)c2sccc2n1
In short: as §1

dasatinib = compound: Cc1nc(Nc2ncc(C(=O)Nc3c(C)cccc3Cl)s2)cc(N2CCN(CCO)CC2)n1 [dasatinib]
In short: as §1

[4] = compound: Cc1ncc(-c2ccnc(Nc3ccc(S(C)(=O)=O)cc3)n2)n1C(C)C
In short: as §1

[5] = compound: Cn1cc(-c2ccc3c(c2)CCN3C(=O)Cc2cccc(C(F)(F)F)c2)c2c(N)ncnc21
In short: as §1

quisinostat = compound: Cn1cc(CNCC2CCN(c3ncc(C(=O)NO)cn3)CC2)c2ccccc21 [quisinostat]
In short: as §1

tipifarnib = compound: Cn1cncc1[C@@](N)(c1ccc(Cl)cc1)c1ccc2c(c1)c(-c1cccc(Cl)c1)cc(=O)n2C [tipifarnib]
In short: as §1

[6] = compound: NC(=O)Nc1cc(-c2cccc(F)c2)sc1C(=O)N[C@H]1CCCNC1
In short: as §1

[7] = compound: NC(=O)c1cnc(N[C@@H]2CCCC[C@@H]2N)nc1Nc1cccc(-n2nccn2)c1
In short: as §1

[8] = compound: NC1(c2ccc(-c3nc4ccn5c(=O)[nH]nc5c4cc3-c3ccccc3)cc2)CCC1
In short: as §1

Measured: log2 fold change

UBQLN1 (UniProt Q9UMX0)
inactive: lapatinib 0.026 | pictilisib -0.009 | crizotinib 0.025 | [1] 0.048 | duvelisib 0.04 | gandotinib -0.012 | tozasertib -0.028 | doramapimod -0.065 | bafetinib -0.002 | [2] -0.016 | nilotinib 0.047 | [3] 0.037 | dasatinib 0.045 | [4] 0.062 | [5] -0.054 | quisinostat -0.002 | tipifarnib -0.027 | [6] 0.009 | [7] 0.012 | [8] 0.026

UBE2H (UniProt P62256)
inactive: lapatinib 0.002 | pictilisib -0.022 | crizotinib 0.011 | [1] 0.174 | duvelisib 0.016 | gandotinib -0.172 | tozasertib 0.024 | doramapimod 0.003 | bafetinib 0.009 | [2] -0.188 | nilotinib -0.021 | [3] -0.041 | dasatinib 0.046 | [4] 0.02 | [5] 0.021 | quisinostat -0.015 | tipifarnib -0.049 | [6] 0.014 | [7] 0.005 | [8] -0.041

TWF2 (UniProt Q6IBS0)
inactive: lapatinib -0.008 | pictilisib -0.052 | crizotinib 0.042 | [1] -0.073 | duvelisib -0.003 | gandotinib 0.034 | tozasertib -0.025 | doramapimod -0.032 | bafetinib -0.006 | [2] 0.07 | nilotinib -0.012 | [3] 0.035 | dasatinib 0.021 | [4] 0.022 | [5] 0.004 | quisinostat 0.015 | tipifarnib 0.008 | [6] -0.019 | [7] -0.006 | [8] -0.028

UCHL3 (UniProt P15374)
inactive: lapatinib 0.011 | pictilisib 0.015 | crizotinib 0.055 | [1] -0.05 | duvelisib 0.023 | gandotinib -0.016 | tozasertib 0 | doramapimod -0.005 | bafetinib 0.066 | [2] 0.009 | nilotinib -0.031 | [3] 0.023 | dasatinib -0.003 | [4] -0.05 | [5] 0 | quisinostat 0.067 | tipifarnib 0.039 | [6] -0.005 | [7] -0.028 | [8] 0.069

UBR2 isoform 4 (UniProt Q8IWV8)
inactive: lapatinib -0.023 | pictilisib -0.013 | crizotinib -0.082 | [1] -0.017 | duvelisib -0.017 | gandotinib -0.053 | tozasertib -0.009 | doramapimod 0.013 | bafetinib -0.082 | [2] -0.01 | nilotinib 0 | [3] 0.01 | dasatinib -0.036 | [4] -0.027 | [5] 0.01 | quisinostat -0.091 | tipifarnib -0.002 | [6] 0.035 | [7] 0.002 | [8] -0.013

UBE2L3 isoform 3 (UniProt P68036)
inactive: lapatinib 0 | pictilisib -0.013 | crizotinib 0.036 | [1] 0.086 | duvelisib 0.025 | gandotinib -0.041 | tozasertib -0.008 | doramapimod -0.039 | bafetinib 0.053 | [2] -0.041 | nilotinib -0.012 | [3] -0.007 | dasatinib 0.027 | [4] 0.014 | [5] -0.041 | quisinostat 0.024 | tipifarnib 0.043 | [6] -0.004 | [7] 0 | [8] 0.047

UBE3D (UniProt Q7Z6J8)
inactive: lapatinib 0.052 | pictilisib 0.003 | crizotinib -0.026 | [1] -0.092 | duvelisib 0.072 | gandotinib 0.084 | tozasertib 0.019 | doramapimod -0.011 | bafetinib 0.011 | [2] 0.004 | nilotinib 0.011 | [3] -0.022 | dasatinib -0.012 | [4] -0.07 | [5] -0.051 | quisinostat -0.045 | tipifarnib 0.027 | [6] 0.049 | [7] -0.001 | [8] 0.002

UCHL5 isoform 3 (UniProt Q9Y5K5)
inactive: lapatinib 0.042 | pictilisib -0.029 | crizotinib 0.022 | [1] 0.121 | duvelisib -0.01 | gandotinib -0.044 | tozasertib -0.007 | doramapimod -0.015 | bafetinib -0.019 | [2] -0.02 | nilotinib 0.016 | [3] -0.008 | dasatinib 0.01 | [4] 0.001 | [5] 0.006 | quisinostat -0.01 | tipifarnib -0.005 | [6] 0.013 | [7] -0.031 | [8] 0.003

UBE2E3 (UniProt Q969T4)
inactive: lapatinib 0.013 | pictilisib -0.003 | crizotinib -0.034 | [1] -0.005 | duvelisib -0.013 | gandotinib 0.047 | tozasertib -0.023 | doramapimod -0.011 | bafetinib -0.036 | [2] 0.074 | nilotinib 0.011 | [3] -0.033 | dasatinib 0.033 | [4] -0.032 | [5] 0.007 | quisinostat -0.044 | tipifarnib 0.014 | [6] 0.012 | [7] -0.004 | [8] -0.094

TUBD1 (UniProt Q9UJT1)
inactive: lapatinib 0.007 | pictilisib 0.051 | crizotinib 0.092 | [1] -0.015 | duvelisib 0.111 | gandotinib 0.032 | tozasertib -0.02 | doramapimod 0 | bafetinib 0.315 | [2] -0.031 | nilotinib -0.041 | [3] 0.143 | dasatinib 0.064 | [4] -0.1 | [5] 0.008 | quisinostat -0.113 | tipifarnib 0.026 | [6] 0.028 | [7] 0.063 | [8] 0.104

TXNDC17 (UniProt Q9BRA2)
inactive: lapatinib 0.005 | pictilisib -0.007 | crizotinib 0.024 | [1] 0.031 | duvelisib 0.053 | gandotinib 0.006 | tozasertib -0.012 | doramapimod -0.034 | bafetinib 0.03 | [2] -0.016 | nilotinib 0.025 | [3] -0.026 | dasatinib -0.022 | [4] 0.045 | [5] 0 | quisinostat 0.014 | tipifarnib 0.039 | [6] -0.012 | [7] -0.021 | [8] 0.037

TXNDC11 (UniProt Q6PKC3)
inactive: lapatinib -0.044 | pictilisib 0.057 | crizotinib 0.052 | [1] -0.042 | duvelisib -0.007 | gandotinib -0.025 | tozasertib 0.023 | doramapimod -0.016 | bafetinib -0.057 | [2] 0.063 | nilotinib -0.006 | [3] 0.07 | dasatinib -0.038 | [4] 0.063 | [5] 0.004 | quisinostat -0.064 | tipifarnib 0.134 | [6] 0.052 | [7] -0.029 | [8] -0.024

TUBB2A (UniProt Q13885)
inactive: lapatinib 0.009 | pictilisib 0.011 | crizotinib -0.049 | [1] -0.016 | duvelisib -0.012 | gandotinib 0.028 | tozasertib -0.011 | doramapimod 0.004 | bafetinib 0.026 | [2] -0.005 | nilotinib -0.005 | [3] -0.002 | dasatinib -0.049 | [4] -0.02 | [5] -0.001 | quisinostat -0.035 | tipifarnib 0.009 | [6] 0.043 | [7] 0.003 | [8] 0.007

UBR3 isoform 4 (UniProt Q6ZT12)
inactive: lapatinib -0.003 | pictilisib 0.01 | crizotinib -0.092 | [1] -0.006 | duvelisib -0.003 | gandotinib -0.046 | tozasertib 0.06 | doramapimod 0.015 | bafetinib -0.042 | [2] 0.05 | nilotinib 0.003 | [3] -0.033 | dasatinib -0.026 | [4] -0.005 | [5] 0.014 | quisinostat -0.069 | tipifarnib -0.009 | [6] 0.036 | [7] -0.032 | [8] -0.039

Reprinted from the listing (2 entries):
TXNDC17 (UniProt Q9BRA2)
inactive: lapatinib 0.005 | pictilisib -0.007 | crizotinib 0.024 | [1] 0.031 | duvelisib 0.053 | gandotinib 0.006 | tozasertib -0.012 | doramapimod -0.034 | bafetinib 0.03 | [2] -0.016 | nilotinib 0.025 | [3] -0.026 | dasatinib -0.022 | [4] 0.045 | [5] 0 | quisinostat 0.014 | tipifarnib 0.039 | [6] -0.012 | [7] -0.021 | [8] 0.037

TXNDC11 (UniProt Q6PKC3)
inactive: lapatinib -0.044 | pictilisib 0.057 | crizotinib 0.052 | [1] -0.042 | duvelisib -0.007 | gandotinib -0.025 | tozasertib 0.023 | doramapimod -0.016 | bafetinib -0.057 | [2] 0.063 | nilotinib -0.006 | [3] 0.07 | dasatinib -0.038 | [4] 0.063 | [5] 0.004 | quisinostat -0.064 | tipifarnib 0.134 | [6] 0.052 | [7] -0.029 | [8] -0.024

More results

TYW1 (UniProt Q9NV66)
inactive: lapatinib -0.094 | pictilisib -0.084 | crizotinib 0.002 | [1] -0.007 | duvelisib 0.013 | gandotinib -0.037 | tozasertib -0.02 | doramapimod -0.071 | bafetinib -0.18 | [2] 0.015 | nilotinib -0.129 | [3] -0.036 | dasatinib -0.073 | [4] -0.1 | [5] -0.019 | quisinostat 0.105 | tipifarnib -0.088 | [6] 0.002 | [7] 0.022 | [8] 0.062

UBAP2L isoform 5 (UniProt Q14157)
inactive: lapatinib -0.022 | pictilisib -0.116 | crizotinib 0.099 | [1] -0.002 | duvelisib -0.047 | gandotinib 0.034 | tozasertib -0.049 | doramapimod -0.121 | bafetinib -0.015 | [2] -0.026 | nilotinib -0.141 | [3] 0.015 | dasatinib -0.035 | [4] 0.055 | [5] -0.058 | quisinostat 0.024 | tipifarnib -0.106 | [6] 0.048 | [7] 0.01 | [8] 0.02

From the supplement of paper PMC10849652
